Data from patent US8163927B2, “Azabicyclo [3.1.0] hexane derivatives as modulators of dopamine D3 receptors” (Glaxo Group Limited, priority 2006, dated 2012).
Some entries share one result that the patent states for a list of compounds.

Sequences of proteins named here, by UniProt entry; tags and fusion partners are left off.
UniProt P35462, whole entry: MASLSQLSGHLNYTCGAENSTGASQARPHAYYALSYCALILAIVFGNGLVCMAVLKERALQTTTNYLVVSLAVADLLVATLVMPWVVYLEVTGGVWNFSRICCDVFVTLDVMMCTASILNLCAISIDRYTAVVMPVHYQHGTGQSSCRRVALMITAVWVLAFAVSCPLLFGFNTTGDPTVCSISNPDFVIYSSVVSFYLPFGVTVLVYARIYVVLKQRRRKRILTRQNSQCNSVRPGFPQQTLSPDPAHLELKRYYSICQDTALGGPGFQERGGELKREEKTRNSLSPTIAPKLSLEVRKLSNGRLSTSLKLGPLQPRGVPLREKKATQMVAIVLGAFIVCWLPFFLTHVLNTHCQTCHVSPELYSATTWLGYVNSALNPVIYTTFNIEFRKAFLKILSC

target: D3 receptors (Homo sapiens, UniProt P35462); experiment: GTPS scintillation proximity assay (GTPS-SPA), antagonist format, CHO_D3 cell membranes; type: biochemical; conditions: D3 versus D2 GTPS-SPA

Selectivity for D3 over D2 receptors, at least 20 fold:
Cc1cccn(CCCCN2C[C@@H]3C[C@]3(c3ccc(C(F)(F)F)cc3)C2)c1=O.Cl [Example E1, 3-methyl-1-(4-{(1S,5R)-1-[4-(trifluoromethyl)phenyl]-3-azabicyclo[3.1.0]hex-3-yl}butyl)-2(1H)-pyridinone hydrochloride]
Cc1ccn(CCCCN2C[C@@H]3C[C@]3(c3ccc(C(F)(F)F)cc3)C2)c(=O)c1.Cl [Example E2, 4-methyl-1-(4-{(1S,5R)-1-[4-(trifluoromethyl)phenyl]-3-azabicyclo[3.1.0]hex-3-yl}butyl)-2(1H)-pyridinone hydrochloride]
Cc1ccc(-c2cccn(CCCCN3C[C@@H]4C[C@]4(c4ccc(C(F)(F)F)cc4)C3)c2=O)cn1.Cl.Cl [Example E3, 6′-methyl-1-(4-{(1S,5R)-1-[4-(trifluoromethyl)phenyl]-3-azabicyclo[3.1.0]hex-3-yl}butyl)-3,3′-bipyridin-2(1H)-one dihydrochloride]
Cl.Cl.O=c1c(-c2ccnc(F)c2)cccn1CCCCN1C[C@@H]2C[C@]2(c2ccc(C(F)(F)F)cc2)C1 [Example E4, 2′-fluoro-1-(4-{(1S,5R)-1-[4-(trifluoromethyl)phenyl]-3-azabicyclo[3.1.0]hex-3-yl}butyl)-3,4′-bipyridin-2(1H)-one dihydrochloride]
